Some entries share one result that the patent states for a list of compounds. Some ranges recur; such a range may be that of the whole group of compounds.
Tested on: Male Wistar rats
Assay: Chewing/Yawning/Stretching induction by 5HT6R antagonists
Assay type: in vivo, rat
Details: 1 mg/Kg, 3 mg/Kg, 10 mg/Kg and 30 mg/Kg; Physostigmine 0.1 mg/kg i.p. pretreatment; observed 60 to 90 min after drug

| Structure (SMILES) | increase in the stretching, yawning and chewing behaviors in comparison with the vehicle treated groups |
| --- | --- |
| CN1CCC(Nc2cccc(S(=O)(=O)n3ccc4ccccc43)c2)CC1 [Example 1, 1-[3-(1-Methylpiperidin-4-yl)amino]benzenesulfonyl-1H-indole] | 40-60% |
| CN1CCC(Nc2cccc(S(=O)(=O)n3ccc4cc(F)ccc43)c2)CC1 [Example 6, 1-[3-(1-Methylpiperidin-4-yl)amino]benzenesulfonyl-5-fluoroindole] | 40-60% |
| COc1ccc(S(=O)(=O)n2ccc3ccccc32)cc1NC1CCN(C)CC1 [Example 17, 1-[3-(1-Methylpiperidin-4-yl)amino-4-methoxy]benzenesulfonyl-1H-indole] | 40-60% |

— patent US7998981B2, “Aminoaryl sulphonamide derivatives as functional 5-HT6 ligands” (Suven Life Sciences Limited, priority 2005, dated 2011)
